Reference: patent US20060235036A1, “Vanilloid receptor ligands and their use in treatments” (priority 2005, published 2006)
Some of these results come from one statement about several compounds together.

Protein sequences, listed by entry. Tags and fused reporters are not part of them.
UniProt Q8NER1, whole entry: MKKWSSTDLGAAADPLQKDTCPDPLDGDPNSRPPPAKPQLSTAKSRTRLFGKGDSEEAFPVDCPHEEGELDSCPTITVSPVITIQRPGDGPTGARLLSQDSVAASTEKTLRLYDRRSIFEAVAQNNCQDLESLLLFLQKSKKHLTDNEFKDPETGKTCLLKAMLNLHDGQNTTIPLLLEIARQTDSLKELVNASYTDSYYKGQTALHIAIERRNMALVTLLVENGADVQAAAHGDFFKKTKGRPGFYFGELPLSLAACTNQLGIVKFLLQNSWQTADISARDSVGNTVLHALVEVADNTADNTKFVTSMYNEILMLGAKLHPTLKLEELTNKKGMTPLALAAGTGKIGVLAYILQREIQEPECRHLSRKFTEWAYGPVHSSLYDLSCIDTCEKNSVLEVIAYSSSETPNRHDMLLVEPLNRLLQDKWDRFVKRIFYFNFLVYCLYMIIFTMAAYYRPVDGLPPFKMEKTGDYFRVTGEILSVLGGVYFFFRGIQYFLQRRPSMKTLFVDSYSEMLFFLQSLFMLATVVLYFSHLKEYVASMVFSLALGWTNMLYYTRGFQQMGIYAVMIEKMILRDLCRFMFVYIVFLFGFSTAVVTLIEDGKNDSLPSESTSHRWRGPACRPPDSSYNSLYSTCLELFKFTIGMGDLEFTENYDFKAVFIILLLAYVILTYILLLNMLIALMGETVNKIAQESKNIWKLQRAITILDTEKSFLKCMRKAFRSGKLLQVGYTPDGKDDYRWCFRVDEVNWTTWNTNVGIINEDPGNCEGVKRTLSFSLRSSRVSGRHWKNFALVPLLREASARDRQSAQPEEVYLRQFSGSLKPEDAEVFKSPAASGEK

Target: T1, human VR1 (Homo sapiens, UniProt Q8NER1)
T1 construct: expressed in transfected cells
Assay: Human VR1 Capsaicin Antagonist Assay (45Ca2+ uptake, CHO cells stably expressing human VR1)
Type: cell-based
Settings: capsaicin stimulus, Calcium-45 uptake
Protocol: Compounds may be assayed using Chinese Hamster Ovary cell lines stably expressing either human VR1 or rat VR1 under a CMV promoter. Cells can be cultured in Growth Medium, routinely passaged at 70% confluency using trypsin and plated in the assay plate 24 hours prior to compound evaluation. Possible Growth Medium: • DMEM, high glucose (Gibco 11965-084). • 10% Dialyzed serum (Hyclone SH30079.03). • 1× Non-Essential Amino Acids (Gibco 11140-050). • 1× Glutamine-Pen-Strep (Gibco 10378-016). • Geneticin, 450 μg/mL (Gibco 10131-035). Compounds can be diluted in 100% DMSO and tested for activity over several log units of concentration [40 μM-2 pM]. Compounds may be further diluted in HBSS buffer (pH 7.4) 0.1 mg/mL BSA, prior to evaluation. Final DMSO concentration in assay would be 0.5%. Each assay plate can be controlled with a buffer only and a known antagonist compound (either capsazepine or one of the described VR1 antagonists). Activation of VR1 can be achieved in these cellular assays using either a capsaicin stimulus (ranging from 0.1-1 μM) or by an acid stimulus (addition of 30 mM Hepes/Mes buffered at pH 4.1). […] Plates may be read using a MicroBeta Jet (Wallac Inc.). Compound activity may then calculated using appropriate computational algorithms.

“(2S)-tert-Butyl 2-((2-(6-((7S)-7-hydroxy-5,6,7,8-tetrahydro-naphthalen-1-ylamino)pyrimidin-4-yl)-5-(trifluoromethyl)phenyl)-carbamoyl)-pyrrolidine-1-carboxylate and (2S)-tert-Butyl 2-((2-(6-((7S)-7-hydroxy-5,6,7,8-tetrahydro-naphthalen-1-ylamino)pyrimidin-4-yl)-5-(trifluoromethyl)phenyl)-carbamoyl)-pyrrolidine-1-carboxylate [Example 2]” gave an IC50 of less than 100 nM.
